At least one structure is not confirmed: it was looked up by name or label, or the drawing left a doubt.
Legend:
Format in all cases: in vivo
urotensin II receptor [1] = assay: Increase in the redness or skin temperature of the rat ear after administration of the substance; conditions: rat, 8 mg/kg i.p., data not shown
Experimental: (§1) The examples described herein used conscious rat as the testing animal, although similar results were also observed from anesthetized rats. Other animals can also be utilized following similar procedures. All procedures involving animals were conducted in an animal facility fully accredited by the American Association for Assessment and Accreditation of Laboratory Animal Care (AAALAC) and in accordance with The Guide for the Care and Use of Laboratory Animals (NIH). Protocols were approved by the Internal Animal Care and Use Committee (IACUC). Results are expressed as mean±s.e. mean. Comparisons between groups were assessed using two-sided Student's t-test. P<0.05 was considered significant.
(§2) Unless otherwise indicated, Rat U-II was obtained from SIGMA (U-7507, St Louis, Mo.). Urantide was purchased from Peptide International (PUT-3639-P1, Louisville, Ky.). Experiments were performed with male, Sprague-Dawley rats (Charles River, Wilmington, Mass.), weighing 250-350 g.
(§3) Rats were acclimated at 18° C. for at least 1 hour before U-II administration. The room temperature was kept at 18° C. throughout ear surface temperature measurements. Rat U-II suspended in sterile saline (0.1 ml) at various concentrations was administered to a conscious rat via unilateral […] (i.p.) injection over a period of 5 second. In the serial dose experiment, serial doses of U-II were administered to a conscious rat via subcutaneous (s.c.) routes. The lateral inner ear surface temperature of the rat was measured using a Raytek High Performance Infra-red Thermometer (Raytek Corp., Santa Cruz, Calif.) at different time points.
(§4) Urantide (PUT-3639-P1, Peptide International) was administered or co-administered with U-II (3 μg/kg) to a rat via subcutaneous administration. The lateral inner ear surface temperature of the rat was measured using a Raytek High Performance Infra-red Thermometer at different time points, wherein the time point of Urantide administration or Urantide and U-II co-administration was marked as 0 minute.
(§5) The nitric oxide syntheses inhibitor, N^g nitro-L-arginine methylester (L-NAME), or prostacyclin inhibitor, indomethacin, was administered to the rat alone or in combination with U-II. L-NAME (N5751, Sigma, 100 mg/kg) suspended in saline was administered to a rat via […] (i.p.) administration 4 hour prior to injecting the rat with the U-II. Indomethacin (17378, Sigma, 30 mg/kg) suspended in carboxymethylcellulose was administered to a rat via p.o. (per os, L—by mouth or orally) 2 hours prior to injecting the rat with the U-II. Dexamethasone (D1756, Sigma, 8 mg/kg) suspended in saline was administered to a rat via i.p. 2 hours prior to injecting the rat with the U-II. After taking a pre-dose or baseline ear surface temperature, 0.1 ml of U-II at various concentrations formulated in sterile normal saline was injection subcutaneously to the mid-scapular region of the rat. The lateral inner ear surface temperature of the rat was measured using a Raytek High Performance Infra-red Thermometer at different time points, wherein the time point of U-II injection was marked as 0 minutes.

urotensin II receptor [2] = assay: Inhibition of U-II induced increase in the redness or skin temperature of the rat ear; conditions: 8 mg/kg i.p. 2 hours prior to U-II s.c., data not shown
Experimental: as §4
as §5, with “After taking a pre-dose or baseline ear surface temperature, 0.1 ml of U-II at various concentrations formulated in sterile normal saline was injection subcutaneously to the mid-scapular region of the rat.” left out

urotensin II receptor [3] = molecular target: T1, urotensin II receptor (Rattus norvegicus, UniProt P49684); assay: Increase in the redness or skin temperature of the rat ear after administration of the substance; conditions: for increase in the redness and skin temperature of the ear: data not shown
T1 construct: from tissue; host or cells: whole animal: male Sprague-Dawley rats (Charles River), in vivo
T1 sequence (P49684 1-386): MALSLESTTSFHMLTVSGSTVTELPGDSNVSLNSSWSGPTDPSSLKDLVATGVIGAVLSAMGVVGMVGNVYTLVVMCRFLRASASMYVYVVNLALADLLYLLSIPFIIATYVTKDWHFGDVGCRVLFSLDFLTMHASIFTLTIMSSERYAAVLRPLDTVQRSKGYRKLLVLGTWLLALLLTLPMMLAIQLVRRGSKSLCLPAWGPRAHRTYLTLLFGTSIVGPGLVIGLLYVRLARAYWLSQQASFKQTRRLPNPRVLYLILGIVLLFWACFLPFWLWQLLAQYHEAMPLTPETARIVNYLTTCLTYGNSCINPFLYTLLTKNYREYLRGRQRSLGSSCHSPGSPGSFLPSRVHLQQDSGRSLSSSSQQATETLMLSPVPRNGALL
Experimental: as §1, §2, §3, §4, §5

C[C@@H]1C[C@H]2[C@@H]3CCC4=CC(=O)C=C[C@]4(C)[C@@]3(F)[C@@H](O)C[C@]2(C)[C@@]1(O)C(=O)CO [Dexamethasone]
ear flush or ear surface temperature change, substance alone (urotensin II receptor [1]): caused no ear flush or ear surface temperature change
ear flush or ear surface temperature change when administered prior to U-II (urotensin II receptor [2]): caused no ear flush or ear surface temperature change

CC(C)[C@H](NC(=O)[C@@H]1CSSC[C@H](NC(=O)[C@H](CC(=O)O)NC(=O)[C@@H]2CCCN2C(=O)[C@@H](NC(=O)[C@@H](N)CCC(=O)O)[C@@H](C)O)C(=O)N[C@@H](Cc2ccccc2)C(=O)N[C@@H](Cc2c[nH]c3ccccc23)C(=O)N[C@@H](CCCCN)C(=O)N[C@@H](Cc2ccc(O)cc2)C(=O)N1)C(=O)O [U-II]
redness and lateral ear surface temperature after administration (urotensin II receptor [3]; conscious rat, s.c.): the ears of the rat became red
duration of increase in the redness of the ear (urotensin II receptor [3]; rat, 10 μg/kg s.c.): about 30 min
time after administration at which significant increase in the redness of the ear was observed (urotensin II receptor [3]; rat, 10 μg/kg s.c.): about 15 min
ear flushing (urotensin II receptor [3]; rat, 140 μg/kg s.c.): significant ear flushing occurred
increase in the ear temperature (urotensin II receptor [3]; rat, U-II administered, FIG. 2 (s.c. serial doses)): up to 9 °C
increase in the redness and skin temperature of the ear (urotensin II receptor [3]; rat, intramuscular injection): increase in the redness and skin temperature of the ear was observed
increase in the redness and skin temperature of the ear (urotensin II receptor [3]; rat, intravenous injection): increase in the redness and skin temperature of the ear was observed
dose eliciting the strongest increase in the skin temperature (urotensin II receptor [3]; rat, s.c. serial doses 0.3-2000 μg/kg): 9 µg/kg
time of maximum effect on skin temperature of the ear after administration (urotensin II receptor [3]; rat, s.c. serial doses of U-II): 15 to 30 min
redness or skin temperature of the ear after administration (urotensin II receptor [3]; unconscious rat): induced an increase of the redness or skin temperature of the ear

Reference: US7939052B2, “Method of measuring the biological activity of an urotensin II receptor” (priority 2005, dated 2011)
